PubChem BioAssay AID504774 – Drosophila RNAi Screening Center – 2011
In all, the deposit lists about 23,000 reagents; shown is an unselected part of those with a known target gene and a result. 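Values are quantile-normalised luminescence on an arbitrary scale; higher means more cells surviving MMS.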 Names joined by + are all predicted targets of the reagent.

- Assay: 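Knock-downs that shift viability of MMS-exposed cells relative to untreated ones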 (primary screen)
- Cells: Drosophila Kc167 cells
- Reagent: long dsRNA against Drosophila genes, about 0.25 µg dsRNA per well
- Time to read-out: about 6 days: 3 days knock-down, then 3 days with or without MMS
- Treatment: methyl methanesulphonate 0.004% (w/v) for 3 days after knock-down
- Read-out: 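ATP-dependent luminescence as a measure of live cells in MMS-exposed wells, quantile normalised within each plate, with replicate values also given as a mean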
- Scale: mean viability with MMS and viability with MMS: higher = more surviving cells after MMS

no.	gene knocked down	amplicon	mean viability with MMS	viability with MMS, replicate 1	viability with MMS, replicate 2
1	Alp1 (GeneID 40372)	DRSC11781	3.47e6	3.94e6	3.90e6
2	dyw (GeneID 31252)	DRSC18228	3.51e6	4.05e6	3.92e6
3	CG9164 (GeneID 32467)	DRSC19087	3.35e6	3.77e6	3.90e6
4	CG9164 (GeneID 32467)	DRSC20162	3.57e6	3.90e6	3.83e6
5	DJ-1alpha (GeneID 36543)	DRSC07005	3.67e6	4.02e6	4.34e6
6	CG6701 (GeneID 36550)	DRSC07007	3.52e6	3.98e6	3.99e6
7	lectin-46Cb (GeneID 53522)	DRSC06611	3.47e6	3.97e6	3.92e6
8	lncRNA:CR41601 (GeneID 5740627)	DRSC22158	3.52e6	3.97e6	4.00e6
9	Cdc14 (GeneID 34067)	DRSC03013	3.57e6	4.12e6	3.99e6
10	Rbcn-3B (GeneID 31155)	DRSC18574	3.42e6	3.95e6	3.83e6
11	CG9018 (GeneID 38283)	DRSC08618	3.50e6	3.97e6	3.97e6
12	CG11369 (GeneID 31675)	DRSC17779	3.49e6	4.00e6	3.93e6
13	CG30192 (GeneID 246510)	DRSC03977	3.49e6	3.98e6	3.95e6
14	CG17163 (GeneID 3354988)	DRSC20901	3.47e6	3.86e6	4.03e6
15	CG30495 (GeneID 246651)	DRSC06703	3.56e6	4.01e6	4.05e6
16	Gbeta5 (GeneID 31744)	DRSC17754	3.61e6	3.94e6	4.25e6
17	PGRP-LA (GeneID 39062)	DRSC10327	3.61e6	4.22e6	3.94e6
18	PGRP-LA (GeneID 39062)	DRSC10414	3.50e6	4.13e6	3.79e6
19	E(spl)m8-HLH (GeneID 43161)	DRSC16654	3.62e6	4.13e6	4.09e6
20	Acyp2 (GeneID 41910)	DRSC15336	3.48e6	3.90e6	3.97e6
21	CG44837 (GeneID 5740513)	DRSC10133	3.32e6	3.66e6	3.80e6
22	CG44837 (GeneID 5740513)	DRSC10558	3.56e6	4.00e6	4.06e6
23	pod1 (GeneID 31620)	DRSC18362	3.65e6	4.19e6	4.19e6
24	Cyp6a16Psi (retired record) (GeneID 3772661)	DRSC03307	3.52e6	3.98e6	4.00e6
25	Rad60 (GeneID 42748)	DRSC15580	3.53e6	4.06e6	3.92e6
26	mIF2 (GeneID 43382)	DRSC14510	3.58e6	4.04e6	4.09e6
27	Tig (GeneID 33896)	DRSC03456	3.29e6	3.49e6	3.84e6
28	CG33792 (GeneID 3772111)	DRSC05355	3.68e6	3.97e6	4.28e6

Next part (4 carried over from the part before).
no.	gene knocked down	amplicon	mean viability with MMS	viability with MMS, replicate 1	viability with MMS, replicate 2
25	Rad60 (GeneID 42748)	DRSC15580	3.53e6	4.06e6	3.92e6
26	mIF2 (GeneID 43382)	DRSC14510	3.58e6	4.04e6	4.09e6
27	Tig (GeneID 33896)	DRSC03456	3.29e6	3.49e6	3.84e6
28	CG33792 (GeneID 3772111)	DRSC05355	3.68e6	3.97e6	4.28e6
29	puf (GeneID 42935)	DRSC15875	3.22e6	3.63e6	3.71e6
30	puf (GeneID 42935)	DRSC23167	3.75e6	4.27e6	4.23e6
31	CG7953 (GeneID 34801)	DRSC01902	3.49e6	3.88e6	4.01e6
32	t-Grip84 (GeneID 38852)	DRSC10904	3.64e6	4.34e6	3.94e6
33	RIOK1 (GeneID 39309)	DRSC09853	3.65e6	4.10e6	4.17e6
34	CG14830 (GeneID 38800)	DRSC08876	3.40e6	3.71e6	4.01e6
35	CG14830 (GeneID 38800)	DRSC10200	3.52e6	3.92e6	4.07e6
36	onecut (GeneID 45816)	DRSC17175	3.67e6	4.09e6	4.21e6
37	CG43736 + CG33692 (retired record)	DRSC18370	3.67e6	4.07e6	4.25e6
38	CG43736 + CG33692 (retired record)	DRSC18371	3.78e6	4.20e6	4.41e6
39	CG14710 (GeneID 41393)	DRSC14933	3.62e6	4.11e6	4.15e6
40	CG14022 (GeneID 33763)	DRSC02352	3.50e6	4.00e6	3.93e6
41	side-VII (GeneID 41184)	DRSC14578	3.81e6	4.37e6	4.26e6
42	CG17472 (GeneID 35320)	DRSC02622	3.63e6	4.11e6	4.13e6
43	Spf45 (GeneID 3355114)	DRSC03826	3.44e6	3.91e6	3.87e6
44	CG4627 (GeneID 36457)	DRSC06873	3.56e6	3.87e6	4.22e6
45	l(1)G0469 (GeneID 32371)	DRSC19412	3.45e6	4.07e6	3.46e6
46	l(1)G0469 (GeneID 32371)	DRSC19462	3.68e6	4.07e6	4.21e6
